Data from US20070134261A1, “Effectors of innate immunity” (priority 2001, published 2007).
Part of at least one peptide drawing is inferred or uncertain, most often the ends. No end group written: not given here.

Key:
A549 epithelial cells = test: Human Operon arrays (PRHU04-S1) of A549 cells treated with peptide alone (Tables 31-37, 53); conditions: 50 μg/ml, 4 h
[1] = format: cell-based; conditions: overnight, 96-well plate; for MIC, C. rhod.: Citobacter rhodensis; for MIC, EHEC: Enterohaemorrhagic E. coli; for MIC, E. coli: Escherichia coli; for MIC, P. aerug.: Pseudomonas aeruginosa; for MIC, S. typhim.: Salmonella enteritidis ssp. typhimurium
BALB/c mice = test: Lethal endotoxemia in galactosamine-sensitized BALB/c mice; format: in vivo; conditions: 2 μg LPS; peptide 200 μg/mouse = 8 mg/kg IP 15 min after LPS; 48 hours; no peptide 10
S. aureus = test: Murine S. aureus infection model (CD-1 mice); format: in vivo, mouse; conditions: peptide 200 μg IP; No Peptide 6/8
Experimental: (§1) BALB/c mice were given 1×10^5 Salmonella and cationic peptide (200 μg) by intraperitoneal injection. The mice were monitored for 24 hours at which point they were euthanized, the spleen removed, homogenized and resuspended in PBS and plated on Luria Broth agar plates with Kanamycin (50 μg/ml). The plates were incubated overnight at 37° C. and counted for viable bacteria (Table 49 and 50). CD-1 mice were given 1×10^8 S. aureus in 5% porcine mucin and cationic peptide (200 μg) by intraperitoneal injection (Table 51). The mice were monitored for 3 days at which point they were euthanized, blood removed and plated for viable counts. CD-1 male mice were given 5.8×10^6 CFU EHEC bacteria and cationic peptide (200 μg) by intraperitoneal (IP) injection and monitored for 3 days (Table 52). […] Many of the cationic peptides were shown not to be directly antimicrobial as tested by the Minimum Inhibitory Concentration (MIC) assay (Table 54).

CD-1 mice = test: Lethal endotoxemia in galactosamine-sensitized CD-1 mice; format: in vivo; conditions: 2 μg LPS; peptide 200 μg/mouse = 8 mg/kg IP 15 min after LPS; 48 hours; control 0
Salmonella = Salmonella infection in BALB/c mice (viable bacteria in spleen); format: in vivo, mouse
Experimental: as §1

EHEC bacteria = test: Murine EHEC infection model (CD-1 male mice); format: in vivo, mouse; conditions: peptide 200 μg IP, 3 days; control 25
[2] = Table 49, peptide 200 μg IP, 24 h, Control 2.70 ± […] 10^5

## SELPGLKHPCVPGS [SEQ ID NO: 13]
A549 epithelial cells
  Fold Up regulation of Gene Expression relative to Untreated Cells: Cell cycle gene (S70622): 3.2 fold
  Fold Up regulation of Gene Expression relative to Untreated Cells: Dehydrogenase (D17793): 2.2 fold
  Fold Up regulation of Gene Expression relative to Untreated Cells: Forkhead protein (AF042832): 3.5 fold
  Fold Up regulation of Gene Expression relative to Untreated Cells: Homeobox protein (AC004774): 2.5 fold
  Fold Up regulation of Gene Expression relative to Untreated Cells: IL-10 Receptor (U00672): 4.3 fold
  Fold Up regulation of Gene Expression relative to Untreated Cells: KIAA0284 Protein (AB006622): 2.1 fold
  Fold Up regulation of Gene Expression relative to Untreated Cells: Peroxisome factor (AB013818): 2.9 fold
  Fold Up regulation of Gene Expression relative to Untreated Cells: Polypeptide (AF105424): 5.3 fold
  Fold Up regulation of Gene Expression relative to Untreated Cells: Protein (AL050261): 2.8 fold
  Fold Up regulation of Gene Expression relative to Untreated Cells: Receptor (AF112461): 10.0 fold
  Fold Up regulation of Gene Expression relative to Untreated Cells: SPR1 protein (AB031480): 2.7 fold
  Fold Up regulation of Gene Expression relative to Untreated Cells: Transferase (AF038664): 9.7 fold
  Fold Up regulation of Gene Expression relative to Untreated Cells: Transferase (M63509): 2.1 fold
  Fold Up regulation of Gene Expression relative to Untreated Cells: Unknown (AL096803): 4.3 fold
  Fold Up regulation of Gene Expression relative to Untreated Cells: Zinc finger protein (AF061261): 9.4 fold
[1]
  MIC, C. rhod.: >
  MIC, EHEC: >
  MIC, E. coli: >
  MIC, P. aerug.: >
  MIC, S. typhim.: >
BALB/c mice
  Survival: 33%
S. aureus
  # Mice Survived (3 days)/Total mice in group: 3/4
CD-1 mice
  Survival: 20%
Salmonella; [2]
  Viable Bacteria in the Spleen: 3.80 ± 0.97 × 10^4 CFU/ml

## RRRWKWAWPRRK [SEQ ID NO: 24]
BALB/c mice
  Survival: 17%
CD-1 mice
  Survival: 0%

## NLPDLKKPRVPATS [SEQ ID NO: 17]
[1]
  MIC, C. rhod.: >
  MIC, EHEC: >
  MIC, E. coli: >
  MIC, P. aerug.: >
  MIC, S. typhim.: >
BALB/c mice
  Survival: 17%
S. aureus
  # Mice Survived (3 days)/Total mice in group: 4/4
CD-1 mice
  Survival: 40%
Salmonella; [2]
  Viable Bacteria in the Spleen: 4.79 ± 1.27 × 10^4 CFU/ml

## RAAFKWAWAWWRRK [SEQ ID NO: 23]
BALB/c mice
  Survival: 0%
S. aureus
  # Mice Survived (3 days)/Total mice in group: 4/4
EHEC bacteria
  Survival: 100%
Salmonella; mouse, in vivo, ip
  Viable Bacteria in the Spleen: 6.16 ± 0.32 × 10^4 CFU/ml
